Results from patent US10246444B2, “1,2-dithiolane and dithiol compounds useful in treating mutant EGFR-mediated diseases and conditions” (Sabila Biosciences LLC, priority 2017, dated 2019).
At least one compound was matched to its structure with a doubt left.

Molecular target: kinase
Test: Radioisotope filter binding assay (33P-ATP kinase activity, IC50)
Type: biochemical
Conditions: HER 2, read-out: IC50 Activity level HER 2
Procedure: Radioisotope Filter Binding Assay: In this assay format, it directly detects the true product without the use of modified substrates or coupling enzymes (Uitdehaag, J. C. et al. Br. J. Pharmacol. 2012, 166, 858-876; Hastie, C. J. et al. Nat. Protoc. 2006, 1, 968-971) according to equation 1.
The protocol calls for test compound of the invention to be incubated with kinase, substrate, cofactors, and radio-isotope-labeled ATP (^33P-gamma-ATP). The reaction mixtures are then spotted onto filter papers which bind the radioisotope labeled catalytic product. Unreacted phosphate is removed via washing. The reagents used include base reaction buffer; 20 mM Hepes (pH 7.5), 10 mM MgCl2, 1 mM EGTA, 0.02% Brij35, 0.02 mg/ml BSA, 0.1 mM Na3VO4, 2 mM DTT, 1% DMSO. […]

Q: Which IC50 does the source give for `N#Cc1cnc2cc(OC[C@H](O)CO)c(NC(=O)CC3CSSC3)cc2c1Nc1ccc(OCc2cccc(F)c2)c(Cl)c1` [Example 90, (R)—N-(4-((3-Chloro-4-((3-fluorobenzyl)oxy)phenyl)amino)-3-cyano-7-(2,3-dihydroxypropoxy)quinolin-6-yl)-2-(1,2-dithiolan-4-yl)acetamide] here?
A: 100 to 999 nM
